# Results as given in PubChem BioAssay AID1445 (SRMLSC, 2008).
# Protein sequences, listed by entry. Tags and fused reporters are not part of them. Lines headed by an entry give the natural chain unless they say otherwise; changes in a name come on top.
# UniProt O96935: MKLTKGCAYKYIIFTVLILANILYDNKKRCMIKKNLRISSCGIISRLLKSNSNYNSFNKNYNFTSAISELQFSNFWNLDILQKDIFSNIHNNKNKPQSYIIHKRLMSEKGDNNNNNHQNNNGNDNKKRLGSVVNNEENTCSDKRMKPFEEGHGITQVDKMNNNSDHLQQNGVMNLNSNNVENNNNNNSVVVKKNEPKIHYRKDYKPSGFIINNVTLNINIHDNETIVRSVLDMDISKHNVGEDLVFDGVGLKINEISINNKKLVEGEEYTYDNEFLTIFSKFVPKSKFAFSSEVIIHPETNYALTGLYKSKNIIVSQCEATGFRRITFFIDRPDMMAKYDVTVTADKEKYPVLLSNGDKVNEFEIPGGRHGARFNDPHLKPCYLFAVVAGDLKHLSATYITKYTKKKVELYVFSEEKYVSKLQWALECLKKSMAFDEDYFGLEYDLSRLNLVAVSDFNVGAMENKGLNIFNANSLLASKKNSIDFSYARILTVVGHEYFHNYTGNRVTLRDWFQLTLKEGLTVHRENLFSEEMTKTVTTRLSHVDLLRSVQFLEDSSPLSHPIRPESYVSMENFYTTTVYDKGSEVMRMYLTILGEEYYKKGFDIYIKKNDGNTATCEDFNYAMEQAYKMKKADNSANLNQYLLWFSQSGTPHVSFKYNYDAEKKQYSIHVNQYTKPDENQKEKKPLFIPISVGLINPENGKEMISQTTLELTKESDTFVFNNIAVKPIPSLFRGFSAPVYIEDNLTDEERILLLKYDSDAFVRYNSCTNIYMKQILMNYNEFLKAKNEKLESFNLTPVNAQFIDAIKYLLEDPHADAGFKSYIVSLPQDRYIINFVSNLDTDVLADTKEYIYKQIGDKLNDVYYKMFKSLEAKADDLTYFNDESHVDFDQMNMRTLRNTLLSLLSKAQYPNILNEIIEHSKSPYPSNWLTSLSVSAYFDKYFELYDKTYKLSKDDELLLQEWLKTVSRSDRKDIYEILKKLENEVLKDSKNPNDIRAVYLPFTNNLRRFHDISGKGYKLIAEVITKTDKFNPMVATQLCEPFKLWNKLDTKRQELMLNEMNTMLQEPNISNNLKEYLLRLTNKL
# Hit rate of the full screen: of about 220,000 compounds, about 910 (0.41%) were called active. The inconclusive results got no clear call from the source; some entries with a clear call stand among them for comparison.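 How the source made its calls: active means primary inhibition above the hit cutoff, then over 50% inhibition at one or more dose response concentrations (cut at about 23% in these data, passing the limit was not always enough); inconclusive means conflicting primary data, or primary hits not chosen for dose response; inactive means low primary inhibition, or under 50% at every dose.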
# Target: Aminopeptidase N (Plasmodium falciparum (isolate 3D7)) (UniProt O96935)
# Experiment: P. falciparum M1AAP inhibitors, biochemical, fluorogenic H-Leu-NHMec substrate, 1536-well (AID 1445);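 further: plate controls were DMSO full reaction for no effect and no enzyme background for full effect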
# Conditions: recombinant M1AAP, H-Leu-NHMec fluorogenic kinetic assay; at 30 µM, active compounds read high unless noted
row,SMILES,inhibition
1,COc1ccccc1C(=O)Oc1cc(N)n(S(=O)(=O)c2ccccc2)n1,inactive: 11.1%
2,C=CCn1c(CNc2ccc(C)cc2)nnc1SCC(=O)N/N=C/c1ccc(O)cc1O,active: 37%
3,O=C(CN1C(=O)S/C(=C\C=C\c2ccccc2)C1=O)Nc1ccccc1C(=O)O,inconclusive: 24%
4,Cc1ccc(S(=O)(=O)c2c(N)n(C)c3nc4ccccc4nc23)cc1,inconclusive: 28.1%
5,COc1ccc(OC)c(S(=O)(=O)N2CCC(C(=O)NCc3ccccc3)CC2)c1,active: 57.9%
6,O=S(=O)(Nc1cc(Sc2ncn[nH]2)c(O)c2ccccc12)c1ccccc1,inactive: 13.5%
7,O=C(NC1CCCCC1)C(c1cccs1)N(CC1CCCO1)C(=O)c1csnn1 (centres undefined),inconclusive: 24.6%
8,Cn1nccc1NC(=O)COCC(=O)O,inconclusive: 24.1%
9,O=C1NC(=S)N/C1=C/c1cc([N+](=O)[O-])ccc1O,active: 27.2%
10,CCSc1nc2ccccc2n1CC(=O)N1CCOCC1,inactive: 8.83%
11,O=C(COC(=O)c1cc(NS(=O)(=O)c2cccs2)ccc1O)Nc1ccc(F)c(F)c1F,inactive: 6.76%
12,S=c1[nH]nc(-c2ccco2)n1/N=C/c1cccc(Cl)c1Cl,inconclusive: 25%
13,CCS(=O)(=O)c1nn2c(N)c(/C=C3/C=CC(=O)C(OC)=C3)c(=O)nc2s1,inconclusive: 23.7%
14,C/C(Cl)=C\Cn1c(O)c(N=NC(N)=S)c2cc(Br)ccc21,inconclusive: 27.8%
15,CN(C)Cc1c(O)ccc2c(-c3ccccc3)cc(=O)oc12,inactive: 7.13%
16,O=C(c1cccnc1)N(c1cc2sc(=O)oc2c2ccccc12)S(=O)(=O)c1ccccc1,inconclusive: 25.3%
17,O=C(O)CCc1ccc(-c2ccccc2)n1NC(=O)c1sc2ccccc2c1Cl,active: 24.7%
18,CC(C)C[C@@H]1NC(=O)[C@H](C(C)C)NC(=O)c2cc([N+](=O)[O-])cc(I)c2OCC[C@@H](C(N)=O)NC1=O,inconclusive: 42.6%
19,COc1ccc(NC(=O)C2C3C=CC(C3)C2C(=O)NCc2ccccn2)c(OC)c1 (centres undefined),active: 25.6%
20,O=S(=O)(Nc1nnc(-c2ccccc2)s1)c1ccc(Cl)cc1,inconclusive: 27.9%
21,COc1ccc(Br)cc1/C=N/NC(=O)CNC(=O)/C=C/c1ccccc1,inconclusive: 34.6%
22,Nc1nnc(CC(=O)N/N=C\c2cc([N+](=O)[O-])ccc2O)s1,inconclusive: 28.3%
23,CCCC1=[N+](CC(C)=O)CCn2c(C)ccc21,inactive: 6.47%

row,SMILES,inhibition
1,O=C(O)C1Nc2c(O)cc(Cl)c([N+](=O)[O-])c2C2C=CCC12 (centres undefined),inconclusive: 28.5%
2,CCN(CC)c1ccc2cc(C=O)c(=O)oc2c1,inconclusive: 25.4%
3,COc1ccc(/C=N/NC(=O)c2ccncc2)cc1CSc1nc2ccccc2s1,inconclusive: 25.1%
4,CCOc1cc(C2C3=C(CC(C)(C)CC3=O)OC3=C2C(=O)CC(C)(C)C3)cc([N+](=O)[O-])c1O,inactive: 14.2%
5,O=C(O)c1ccc(COc2ccccc2/C=C2\NC(=O)N(Cc3ccccc3)C2=O)cc1,inactive: -0.49%
6,COc1ccc(-c2[nH]c(-c3ccccc3)nc2SCC(=O)NCc2ccco2)cc1OC,inactive: 4.65%
7,CCOc1ccc(C(=O)N/N=C/c2ccc(-c3ccc(S(=O)(=O)Nc4ncccn4)cc3)o2)cc1,active: 55.9%
8,CCOC(=O)c1c(C)[nH]c(C(=O)COC(=O)COc2ccccc2C=O)c1C,inconclusive: 23.6%
9,C/C(=N\NC(=O)CCC(=O)O)c1c(-c2ccccc2)c2cc(Br)ccc2[nH]c1=O,inconclusive: 26.9%
10,CCCn1c(OC)nc2c1c(=O)n(C)c(=O)n2C,inactive: 1.88%
11,Cc1c(Cc2ccccc2)c(=O)oc2cc(O)ccc12,inactive: 22.2%
12,O=C(NC(Cc1c[nH]c2ccccc12)C(=O)O)c1ccco1 (centres undefined),active: 27.5%
13,O=C(NN=C1CCN(Cc2ccccc2)CC1)c1ccccc1O,inactive: 8.75%
14,CCCC1=C/C(=C/c2ccc(-c3ccccc3OC)o2)C(=O)O1,inconclusive: 25%
15,Cc1ccc(N=N/C(=C\O)C(=O)c2ccncc2)cc1,active: 27.6%
16,O=C(CSc1nc2c(c(=O)n1-c1ccc(F)cc1)SCC2)NCC1CCCO1 (centres undefined),inactive: 15.6%
17,O=C(NNC(=S)Nc1ccc(Cl)cc1Cl)c1ccncc1,inconclusive: 24.1%
18,Cn1c(C(=O)N2CCN(C(=O)c3ccco3)CC2)cc2c(=O)n3ccccc3nc21,inconclusive: 27.7%
19,O=C(COc1ncnc2ccccc12)N1CCN(S(=O)(=O)c2ccccc2)CC1,active: 28.2%
20,CC(=NCc1cccnc1)C1=C(O)c2ccccc2C1=O,inactive: 4.58%
21,c1ccc2sc(NC3=NCN(CCN4CCOCC4)CN3)nc2c1,inactive: -2.82%
22,COC(=O)CSc1ncnc2scc(-c3ccccc3)c12,inactive: 8.48%
23,O=C(Nc1cc(S(=O)(=O)N2CCCCC2)ccc1O)c1ccccc1NS(=O)(=O)c1ccc(F)cc1,inconclusive: 27.6%

row,SMILES,inhibition
1,O=C(Nc1cccc(S(=O)(=O)c2cccc(NC(=O)C3CC3)c2)c1)C1CC1,inconclusive: 24%
2,Cc1ccc(-c2nnn(CC(=O)N(Cc3ccco3)C(C(=O)NC3CCCC3)c3cccs3)n2)o1 (centres undefined),inactive: 0.46%
3,Cc1ccc(S(=O)(=O)NC(=O)NCCCCNC(=O)NS(=O)(=O)c2ccc(C)cc2)cc1,inactive: 0.51%
4,O=C(NNS(=O)(=O)c1cccc(Cl)c1)c1cc(-c2ccc(F)cc2)nc2ccccc12,inconclusive: 26.1%
5,Cc1cc(/C=C2/C(=N)N3C(=NC2=O)SN=C3S(C)(=O)=O)c(C)n1-c1ccc(F)cc1,inactive: 14.2%
6,CCOC(=O)NN1C(=O)c2ccccc2NC1c1ccccc1O (centres undefined),inconclusive: 27%
7,O=C(C/C(=N\NC(=O)c1ccccc1Br)C(F)(F)F)c1cccs1,inconclusive: 24.3%
8,Cc1onc(-c2ccccc2Cl)c1C(=O)Nc1cccc(-c2cn3cccnc3n2)c1,active: 26.2%
9,COc1cccc(C(C(=O)NC2CCCC2)N(C(=O)c2ccco2)C2CC2)c1OC (centres undefined),inactive: 11%
10,O=C(CSc1nnc(Cc2cc(=O)[nH]c(=O)[nH]2)n1-c1ccc(Cl)cc1)NCC1CCCO1 (centres undefined),inactive: 0.41%
11,COc1ccc(NC2=Nc3cccc4cccc2c34)cc1OC,inconclusive: 23.3%
12,COc1ccccc1C(=O)Nn1c(C2CCC2)nc2ccccc2c1=O,inactive: 28.5%
13,Oc1[nH]c2ccccc2c1/C=N/c1nccs1,inconclusive: 28.3%
14,Oc1ccc(NCc2ccccc2OCc2ccccc2)cc1,inconclusive: 25.9%
15,Cc1ccc(Nc2cc(C)nc(NCc3ccccc3)n2)cc1,inconclusive: 24.5%
16,COc1cc(Cl)cc(/C=N/NC(N)=O)c1O,inconclusive: 27.2%
17,O=C(CCCCN1CCCCC1)c1ccc2c(c1)Cc1ccccc1-2,inconclusive: 27.2%
18,c1coc(-c2nnc3sc(Cc4cccs4)nn23)c1,inconclusive: 42.8%
19,CCCCn1c(NC(=O)c2ccccc2Cl)c(C#N)c2nc3ccccc3nc21,inconclusive: 26%
20,Cc1ccccc1CSc1nnc(NC(=O)C2COc3ccccc3O2)s1 (centres undefined),inconclusive: 28%
21,Clc1cccc(NC2=NCCC2)c1,inactive: 0.77%
22,COc1ccc(NC(C#N)c2ccccc2OCc2ccccc2)cc1 (centres undefined),inconclusive: 27.2%
23,CCOC(=O)CN1C(=O)S/C(=C/c2ccc(N3CCCCC3)o2)C1=O,inconclusive: 45.3%

# Part of the list above, tab-delimited.
row	SMILES	inhibition
20	CC(=NCc1cccnc1)C1=C(O)c2ccccc2C1=O	inactive: 4.58%
21	c1ccc2sc(NC3=NCN(CCN4CCOCC4)CN3)nc2c1	inactive: -2.82%
22	COC(=O)CSc1ncnc2scc(-c3ccccc3)c12	inactive: 8.48%
23	O=C(Nc1cc(S(=O)(=O)N2CCCCC2)ccc1O)c1ccccc1NS(=O)(=O)c1ccc(F)cc1	inconclusive: 27.6%
2	Cc1ccc(-c2nnn(CC(=O)N(Cc3ccco3)C(C(=O)NC3CCCC3)c3cccs3)n2)o1 (centres undefined)	inactive: 0.46%
3	Cc1ccc(S(=O)(=O)NC(=O)NCCCCNC(=O)NS(=O)(=O)c2ccc(C)cc2)cc1	inactive: 0.51%
4	O=C(NNS(=O)(=O)c1cccc(Cl)c1)c1cc(-c2ccc(F)cc2)nc2ccccc12	inconclusive: 26.1%
5	Cc1cc(/C=C2/C(=N)N3C(=NC2=O)SN=C3S(C)(=O)=O)c(C)n1-c1ccc(F)cc1	inactive: 14.2%
6	CCOC(=O)NN1C(=O)c2ccccc2NC1c1ccccc1O (centres undefined)	inconclusive: 27%
7	O=C(C/C(=N\NC(=O)c1ccccc1Br)C(F)(F)F)c1cccs1	inconclusive: 24.3%
8	Cc1onc(-c2ccccc2Cl)c1C(=O)Nc1cccc(-c2cn3cccnc3n2)c1	active: 26.2%
9	COc1cccc(C(C(=O)NC2CCCC2)N(C(=O)c2ccco2)C2CC2)c1OC (centres undefined)	inactive: 11%
10	O=C(CSc1nnc(Cc2cc(=O)[nH]c(=O)[nH]2)n1-c1ccc(Cl)cc1)NCC1CCCO1 (centres undefined)	inactive: 0.41%
11	COc1ccc(NC2=Nc3cccc4cccc2c34)cc1OC	inconclusive: 23.3%
14	Oc1ccc(NCc2ccccc2OCc2ccccc2)cc1	inconclusive: 25.9%
15	Cc1ccc(Nc2cc(C)nc(NCc3ccccc3)n2)cc1	inconclusive: 24.5%
16	COc1cc(Cl)cc(/C=N/NC(N)=O)c1O	inconclusive: 27.2%
17	O=C(CCCCN1CCCCC1)c1ccc2c(c1)Cc1ccccc1-2	inconclusive: 27.2%
18	c1coc(-c2nnc3sc(Cc4cccs4)nn23)c1	inconclusive: 42.8%
19	CCCCn1c(NC(=O)c2ccccc2Cl)c(C#N)c2nc3ccccc3nc21	inconclusive: 26%
20	Cc1ccccc1CSc1nnc(NC(=O)C2COc3ccccc3O2)s1 (centres undefined)	inconclusive: 28%
21	Clc1cccc(NC2=NCCC2)c1	inactive: 0.77%
22	COc1ccc(NC(C#N)c2ccccc2OCc2ccccc2)cc1 (centres undefined)	inconclusive: 27.2%
23	CCOC(=O)CN1C(=O)S/C(=C/c2ccc(N3CCCCC3)o2)C1=O	inconclusive: 45.3%

# The listing continues.

row,SMILES,inhibition
1,c1cnc(N2CCN(c3nc4ccccc4n4cnnc34)CC2)nc1,active: 24.4%
2,CN(c1ccccc1C(=O)Nc1ccc(F)c(F)c1)S(C)(=O)=O,inactive: 0.14%
3,N#C/C(=C\c1ccc(O)c(O)c1)S(=O)(=O)c1ccccc1,active: 24.6%
4,Cc1ccc(S(=O)(=O)NN2C(=O)/C(=C/c3cccn3C)SC2=S)cc1,inconclusive: 46.2%
5,CCCOc1ccc(C2c3c(oc4ccccc4c3=O)C(=O)N2CCCN2CCOCC2)cc1 (centres undefined),inactive: 4.5%
6,CCOCCCn1c(=NC(C)=O)c(C#N)cc2c(=O)n3ccccc3nc21,inconclusive: 24.8%
7,Cc1ccc(S(=O)(=O)Nc2ccc3ccccc3n2)cc1,inconclusive: 24.7%
8,CN(C)/C=N/c1nc2nccc(-c3ccccc3)n2n1,inconclusive: 24.9%
9,O=C(CC1Sc2ccccc2NC1=O)OCc1cc(=O)oc2cc(O)ccc12 (centres undefined),inconclusive: 27.8%
10,CCCc1cc(=O)oc2c(C)c(O)c(CN3CCCCC3)cc12,inactive: -4.01%
11,CCCCc1cc(=O)oc2c(CN3CCCC3)c(O)ccc12,inconclusive: 42.7%
12,O=C(COc1ccccc1[N+](=O)[O-])Nc1cccnc1,inactive: 7.9%
13,O=C(N/N=C/c1cc(Cl)cc([N+](=O)[O-])c1O)c1cc(-c2ccccn2)nc2ccccc12,inconclusive: 26.4%
14,C=CCn1c(CNC(=O)c2ccco2)nnc1SCC(=O)Nc1cccc(Br)c1,inconclusive: 25.1%
15,O=C(O)c1ccc(-c2ccccn2)s1,inactive: 0.37%
16,CCCCC[C@H](O)/C=C/[C@@H]1[C@@H](C/C=C\CCCC(=O)OC)[C@@H](O)C[C@H]1O,inconclusive: 30.6%
17,O=C(/C=C/c1cccc(Br)c1)N1CCN(c2ccccn2)CC1,inactive: 12.4%
18,COc1ccc(S(=O)(=O)Nc2nncs2)cc1,inactive: -0.42%
19,CC(C)(C)OC(=O)N1CCC[C@H]1c1nnc(SCC(=O)Nc2cccc(Cl)c2)o1,inconclusive: 23.7%
20,COc1cc(/C=C/C(=O)c2c(O)ccc3c(C)cc(=O)oc23)ccc1O,inconclusive: 25.1%
